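The test systems are human melanoma cell lines, treated with a pair of drugs for 72 h and then stained and imaged. Values are the number of DAPI-stained nuclei as a percentage of the DMSO control: 100 is no effect, lower means fewer cells. Concentrations were fixed for each drug; these are the higher of two levels. These are primary screening values without error estimates.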 This is part of the screen, not chosen by result.

Every entry is a combination with everolimus at 0.1 µM: CO[C@H]1C[C@@H]2CC[C@@H](C)[C@@](O)(O2)C(=O)C(=O)N2CCCC[C@H]2C(=O)O[C@H]([C@H](C)C[C@@H]2CC[C@@H](OCCO)[C@H](OC)C2)CC(=O)[C@H](C)/C=C(\C)[C@@H](O)[C@@H](OC)C(=O)[C@H](C)C[C@H](C)/C=C/C=C/C=C/1C

| Second drug | C32 | COLO 829 | COLO 792 | COLO 800 |
|---|---|---|---|---|
| O=C(Nc1ccccc1)c1cc([N+](=O)[O-])ccc1Cl at 10 µM | 90.4 | 56.6 | 67.7 | 53.6 |
| C[C@]1(O)C[C@@H](c2nc(-c3ccc4ccc(-c5ccccc5)nc4c3)c3c(N)nccn32)C1 at 2 µM | 69.0 | 63.8 | 28.2 | 40.0 |
| Nc1cccc2c1CN(C1CCC(=O)NC1=O)C2=O (stereo not drawn) at 5 µM | 87.0 | 70.3 | 45.3 | 67.0 |
| Cc1ccc(Nc2nccc(N(C)c3ccc4c(C)n(C)nc4c3)n2)cc1S(N)(=O)=O at 2 µM | 92.2 | 76.5 | 46.3 | 61.9 |
| Cc1cc(N2CCOCC2)cc2[nH]c(-c3c(NC[C@@H](O)c4cccc(Cl)c4)cc[nH]c3=O)nc12 at 1 µM | 71.1 | 88.9 | 24.3 | 21.6 |
| Cc1cn(-c2cc(NC(=O)c3ccc(C)c(Nc4nccc(-c5cccnc5)n4)c3)cc(C(F)(F)F)c2)cn1 at 1 µM | 76.5 | 80.7 | 47.8 | 60.3 |
| COc1ccc(COc2ccc(Cc3cnc(N)nc3N)cc2OC)cc1 at 5 µM | 86.6 | 59.8 | 73.7 | 55.0 |
| C=CCn1c(=O)c2cnc(Nc3ccc(N4CCN(C)CC4)cc3)nc2n1-c1cccc(C(C)(C)O)n1 at 0.1 µM | 86.5 | 70.3 | 48.3 | 36.5 |
| CS(=O)(=O)CCNCc1ccc(-c2ccc3ncnc(Nc4ccc(OCc5cccc(F)c5)c(Cl)c4)c3c2)o1 at 4 µM | 85.2 | 70.0 | 46.8 | 45.7 |
| Nc1ncn([C@H]2C[C@H](O)[C@@H](CO)O2)c(=O)n1 at 0.5 µM | 94.1 | 67.6 | 79.5 | 78.4 |
| N#CC[C@H](C1CCCC1)n1cc(-c2ncnc3[nH]ccc23)cn1 at 5 µM | 97.7 | 101 | 54.3 | 129 |
| O=C(CCCCCCC(=O)Nc1ccccc1)NO at 0.4 µM | 98.8 | 72.1 | 59.3 | 49.0 |
| N#Cc1c(O)c2c(-c3ccc(-c4ccccc4O)cc3)csc2[nH]c1=O at 10 µM | 84.1 | 73.4 | 61.9 | 52.1 |
| C/C(O)=C(\C#N)C(=O)Nc1cc(Br)ccc1Br at 10 µM | 112 | 59.2 | 50.3 | 51.1 |
| OCCn1cc(-c2cnc3nnn(Cc4ccc5ncccc5c4)c3n2)cn1 at 5 µM | 82.4 | 77.3 | 44.9 | 37.9 |
| O=S(=O)(c1ccccc1)N(CC(F)(F)F)c1ccc(C(O)(C(F)(F)F)C(F)(F)F)cc1 at 7 µM | 87.2 | 64.1 | 53.0 | 82.9 |
| CC(C)(C)c1cnc(CSc2cnc(NC(=O)C3CCNCC3)s2)o1 at 0.05 µM | 75.8 | 91.0 | 32.5 | 41.6 |
| CC(C)CCN1c2nc(Nc3cc(F)c(O)c(F)c3)ncc2N(C)C(=O)C1C (stereo not drawn) at 1 µM | 81.4 | 73.4 | 54.6 | 37.7 |
| COc1cc(N2CCC(N3CCN(C)CC3)CC2)ccc1Nc1ncc(Cl)c(Nc2ccccc2S(=O)(=O)C(C)C)n1 at 0.4 µM | 72.1 | 70.0 | 43.0 | 45.6 |
| Oc1nc(-c2ccc(C(F)(F)F)cc2)nc2c1CSCC2 at 10 µM | 84.6 | 91.2 | 45.8 | 73.1 |
| Cn1cnc2c(F)c(Nc3ccc(Br)cc3Cl)c(C(=O)NOCCO)cc21 at 0.075 µM | 82.2 | 82.7 | 51.1 | 62.3 |
| O=C1NC(=O)/C(=C/c2ccc(-c3ccc(F)cc3O)o2)S1 at 5 µM | 79.4 | 80.6 | 65.4 | 78.1 |
| CO[C@@H]1[C@H](N(C)C(=O)c2ccccc2)C[C@H]2O[C@]1(C)n1c3ccccc3c3c4c(c5c6ccccc6n2c5c31)C(=O)NC4 at 0.4 µM | 68.1 | 81.9 | 50.3 | 31.7 |
| CC1(C)NC(=O)N(c2ccc([N+](=O)[O-])c(C(F)(F)F)c2)C1=O at 5 µM | 84.9 | 73.6 | 57.9 | 73.6 |
| Cc1cc(Nc2cc(N3CCN(C)CC3)nc(Sc3ccc(NC(=O)C4CC4)cc3)n2)n[nH]1 at 0.03 µM | 81.7 | 72.8 | 53.2 | 61.3 |
| Nc1nc(F)nc2c1ncn2[C@@H]1O[C@H](CO)[C@@H](O)[C@@H]1O at 1 µM | 74.0 | 68.8 | 43.8 | 75.2 |
| CC1(C)CCC(c2ccc(Cl)cc2)=C(CN2CCN(c3ccc(C(=O)NS(=O)(=O)c4ccc(N[C@H](CCN5CCOCC5)CSc5ccccc5)c(S(=O)(=O)C(F)(F)F)c4)cc3)CC2)C1 at 2 µM | 78.7 | 59.6 | 13.0 | 24.3 |
| N.N.[Cl][Pt][Cl] at 8 µM | 90.7 | 86.0 | 49.6 | 109 |
| COC(=O)c1sccc1S(=O)(=O)Nc1ccc(Nc2ccccc2)cc1OC at 5 µM | 95.5 | 63.5 | 57.7 | 64.1 |

3 of the entries, repeated:

* Nc1cccc2c1CN(C1CCC(=O)NC1=O)C2=O (stereo not drawn) at 5 µM : C32: 87.0; COLO 829: 70.3; COLO 792: 45.3; COLO 800: 67.0
* OCCn1cc(-c2cnc3nnn(Cc4ccc5ncccc5c4)c3n2)cn1 at 5 µM : C32: 82.4; COLO 829: 77.3; COLO 792: 44.9; COLO 800: 37.9
* COc1cc(N2CCC(N3CCN(C)CC3)CC2)ccc1Nc1ncc(Cl)c(Nc2ccccc2S(=O)(=O)C(C)C)n1 at 0.4 µM : C32: 72.1; COLO 829: 70.0; COLO 792: 43.0; COLO 800: 45.6

Values as published with doi:10.1371/journal.pone.0140310, rounded.